Test: Adherence to polystyrene in the presence of E. coli ESS
Settings: 4 μg TA, 20 μg Focusin; E. coli ESS in NB, 37° C.

Structure (SMILES)	time over which the agent was released from / still bound to polystyrene
CCCC1OC(=O)C(C)CC(C)CCCCC(=O)CCCC(CC)CCCC(COC)CCC(O)C(O)CC(O)CNC1=O (centres unmarked) [Focusin]	> 88 h
CCCC1OC(=O)C(C)CC(C)CCCCC(=O)CCCC(CC)C=CC=C(COC)CCC(O)C(O)CC(O)CNC1=O (centres unmarked) [TA, reference compound]	40 h

Reference: US5532231A, “Antibacterial agent” (priority 1994, dated 1996)
